Experimental data from patent US20200222537A1, “BIOPHOTONIC COMPOSITIONS AND USES THEREOF” (KLOX TECHNOLOGIES LIMITED, priority 2016, published 2020).
≈ marks a conversion by molar mass, not a printed value. Where “and” joins values, the source holds several entries; their conditions need not be identical. Identical values can stand only once.

Columns and labels:
[1] = Emission peak (Flex Station II); format: physicochemical; conditions: ex. 300 nm, gel
Experimental: (§1) The compounds were dissolved in the solvents and at the concentrations indicated in Table 2 and the absorbance and emission peaks were measured (measured using a Flex Station II, Model 384 by Molecular Devices Comp.).

[2] = Absorbance peak (Flex Station II); format: physicochemical; conditions: gel and liquid
Experimental: as §1

[3] = physchem; conditions: organic solvent or mixture

SMILES: CC(C)=CCCC1(C)C(CC=C(C)C)CC2(CC=C(C)C)C(=O)C(CC=C(C)C)=C(O)C1(C(=O)C(C)C)C2=O (stereo not drawn) [Hyperforin]
- Emission peak (nm) [1]: 375 nm and 750 nm
- Absorbance peak (nm) [2]: 300 nm (gel and
- solubility [3]: 250 µg/mL (≈ 466 µM)
